Where “and” joins values, the source holds several entries; their conditions need not be identical. Equal values may be shown once. The shares of active, inactive and inconclusive entries below differ from those in the screen. Where the call is inconclusive, the potency comes from a doubtful curve fit. Calls of active or inactive are those of the source. The call rests on the fitted dose curve; in most records, active means well fitted activation curve with a large enough effect; inconclusive means small, poorly fitted or top-dose-only effect; inactive means flat fitted curve, though single readings scatter.
Assay: Extended Characterization of HPGD Inhibitors: PGE2 Assay in A549 Cells
Settings: PGE2 HTRF level, 16 h; series mostly up to 46.1 µM

| Compound | Potency |
| --- | --- |
| O=C(c1ccc2c(c1)ncn2-c1cccc(C(F)(F)F)c1)N1CCCCC1 | active: 2.64 µM |
| N#Cc1ccc(CSc2nc3ncc(Br)cc3[nH]2)cc1 | active: 0.332 µM |
| Cc1ccccc1CSc1nc2ncc(Br)cc2[nH]1 | inconclusive: 0.833 µM [activator, full curve, poor fit] |
| Cc1cc(-c2nnc3n2CCCCC3)c(C)n1-c1ccccn1 | active: 26.4 µM |
| Cc1cc(-c2nnc3n2CCCCC3)c(C)n1-c1cccc(C(F)(F)F)c1 | inconclusive: 2.09 µM [activator, partial curve, poor fit] |
| FC(F)(F)c1ccc(CSc2nc3ncc(Br)cc3[nH]2)cc1 | inconclusive: 33.2 µM [activator, partial curve, poor fit] |
| Cc1cccc(-n2cnc3cc(C(=O)N4CC(C)CC(C)C4)ccc32)c1 (configuration not stated) | inconclusive: 0.526 µM [activator, full curve, poor fit] |
| O=C(c1ccc2c(c1)ncn2-c1ccccc1)N1CCCCC1 | inconclusive: 0.187 µM [activator, full curve, poor fit] |
| Fc1cccc(CSc2nc3ncc(Br)cc3[nH]2)c1 | inconclusive: 0.526 µM [activator, full curve, poor fit] |
| O=C(c1ccc2c(c1)ncn2-c1cccc(Cl)c1)N1CCCCC1 | inconclusive: 0.372 µM [activator, full curve, poor fit] |
| CC(C)(C)c1ccc(-n2cnc3cc(C(=O)N4CCCCC4)ccc32)cc1 | active: 20.9 µM |
| Cc1cc(-c2nnc3n2CCC3)c(C)n1-c1ccccc1 | inconclusive: 2.09 µM [activator, full curve, poor fit] |
| Brc1cnc2nc(SCc3ccccc3)[nH]c2c1 | inconclusive: 13.2 µM [activator, partial curve, poor fit] |
| Brc1cnc2nc(SCc3ccncc3)[nH]c2c1 | active: 0.833 µM |
| Fc1ccc(CSc2nc3ncc(Br)cc3[nH]2)cc1 | inconclusive: 3.32 µM [activator, full curve, poor fit] |
| Cc1cccc(-n2cnc3cc(C(=O)N4CCCC(C(C)C)C4)ccc32)c1 (configuration not stated) | inconclusive: 0.296 µM [activator, full curve, poor fit] |
| COC(=O)C1CCN(C(=O)c2ccc3c(c2)ncn3-c2cccc(C)c2)CC1 | inconclusive: 0.0743 µM [activator, full curve, poor fit] |
| Cc1cc(-c2nnc3n2CCCCC3)c(C)n1-c1ccc([N+](=O)[O-])cc1 | inconclusive: 14.8 µM [activator, partial curve, poor fit] |
| COc1ccc(CSc2nc3ncc(Br)cc3[nH]2)cc1F | active: 7.43 µM |
| c1ccc(-n2ccc(-c3nnc4n3CCCCC4)c2)cc1 | inconclusive: 37.2 µM [activator, partial curve, poor fit] |
| FC(F)(F)c1ccc(-c2nc(-c3nnc4n3CCCCC4)c(C(F)(F)F)o2)cc1 | inconclusive: 0.0004 µM [activator] |
| Cc1cc(-c2nnc3n2CCCCC3)c(C)n1-c1cccc2ccccc12 | inconclusive: 372 nM [activator, full curve, poor fit] and inconclusive: 52.6 nM [activator, full curve, poor fit] |

A draw from above in order of SMILES length, falling.

| Compound | Potency |
| --- | --- |
| Cc1cc(-c2nnc3n2CCCCC3)c(C)n1-c1ccccn1 | active: 26.4 µM |
| Fc1ccc(CSc2nc3ncc(Br)cc3[nH]2)cc1 | inconclusive: 3.32 µM [activator, full curve, poor fit] |
| Cc1ccccc1CSc1nc2ncc(Br)cc2[nH]1 | inconclusive: 0.833 µM [activator, full curve, poor fit] |
